The list shows a part of the results.
What follows are sequences tested against OsWRKY34 (Oryza sativa, UniProt Q0JBA9 1-250) (assay: protein-binding microarray (RPBM); PBS, 2% BSA, 51.3 ng/ul salmon testes DNA, 50 uM zinc acetate, 200 nM TF, 25 C, 1 h; high values mean tight binding). Details: protein: recombinant; tags: N-terminal polyhistidine and DsRed monomer fusion (pET32a); label: CyDye5-dUTP incorporated in the synthesized complementary strand; 3' TTTTT single-stranded linker to array surface; dsDNA, one strand shown.
Outline: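 Per-feature fluorescence intensity (arbitrary units), read on an Axon 4000B scanner, is the binding signal. Transcription factors carrying an N-terminal polyhistidine tag and DsRed fusion were expressed in E. coli BL21-CodonPlus and purified on Ni–NTA. A custom Agilent array, made double-stranded by primer extension with Cy5-dUTP and blocked with 2% BSA, was incubated with 200 nM protein in PBS, 2% BSA, salmon testes DNA and 50 µM zinc acetate at 25 °C for 1 h and then washed.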

Amino acid sequences for entries named in this document (tags omitted).
UniProt Q0JBA9, entry or part of it: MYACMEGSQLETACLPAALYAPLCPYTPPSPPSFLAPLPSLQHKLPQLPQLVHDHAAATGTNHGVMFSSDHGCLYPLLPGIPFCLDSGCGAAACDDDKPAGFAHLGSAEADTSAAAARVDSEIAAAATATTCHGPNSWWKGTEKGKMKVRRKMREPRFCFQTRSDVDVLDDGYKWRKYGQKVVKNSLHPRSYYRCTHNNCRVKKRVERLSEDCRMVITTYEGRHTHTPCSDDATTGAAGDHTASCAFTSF

Row | Sequence | binding signal
1 | CTAACGTCACGCTTTCCATCCCATCTCTCTTTTTTTCCGTCGGAGTCACCTAGTGCAG | 8240 fluorescence intensity (a.u.)
2 | TACCGGTGTAAATACAGTTGCATGCTGTCTTTTTCTGTTTCGGAGTCACCTAGTGCAG | 10500 fluorescence intensity (a.u.)
3 | TTCCTTATTCTTTAACTTTATTGGGTCATTTAACTTTTTGCGGAGTCACCTAGTGCAG | 8800 fluorescence intensity (a.u.)
4 | ATTATATTGATCAATGACTCTGCTACTACTGCTCCCATATCGGAGTCACCTAGTGCAG | 8780 fluorescence intensity (a.u.)
5 | ATTCCGGTCATTTACGCGCTTTTAGCTTTGCCCTTCATTTCGGAGTCACCTAGTGCAG | 17200 fluorescence intensity (a.u.)
6 | TCTCATCATGGTATGGGCTGGGTATTAGGCTGGCTTTAACCGGAGTCACCTAGTGCAG | 12800 fluorescence intensity (a.u.)
7 | GTCTTTTGGTTGCTTGATGTCGTACTACGTAGATCCTTGTCGGAGTCACCTAGTGCAG | 9510 fluorescence intensity (a.u.)
8 | TAGTTCTGACCTTTGAGCTGTACTCTTTTCTTTGTCATGGCGGAGTCACCTAGTGCAG | 8100 fluorescence intensity (a.u.)
9 | GCCGCGTTCCATTGTTTTTCATCAAATCCTCCGCTTTTCCCGGAGTCACCTAGTGCAG | 13500 fluorescence intensity (a.u.)
10 | ATCCGTCACAAATTTTCTTCCAGATGAACAAGTCACTTTCCGGAGTCACCTAGTGCAG | 8940 fluorescence intensity (a.u.)
11 | TTCTCTTTACATGCTACATATGACCTACCAGAATTACGTACGGAGTCACCTAGTGCAG | 8690 fluorescence intensity (a.u.)
12 | GCTTCGTGTTTTTTTAAGCCGGAGGGCGTCGAGTTGACTCCGGAGTCACCTAGTGCAG | 8270 fluorescence intensity (a.u.)
13 | GCACCTCCTCGCGGCGTCCCACCACGCCTGCGACTTCTTCCGGAGTCACCTAGTGCAG | 9950 fluorescence intensity (a.u.)
14 | AGCAGATGGAGTATATCTTTAGCTAATTAAGCTATAGCTACGGAGTCACCTAGTGCAG | 23000 fluorescence intensity (a.u.)
15 | CGCTGTTTTTTTTTTATTTTGACGGGTAGTAGAGGCCGCGCGGAGTCACCTAGTGCAG | 9990 fluorescence intensity (a.u.)
16 | TATTTATTCGCTTTTGATATCCATCACGCAGCCGCTCCGGCGGAGTCACCTAGTGCAG | 10100 fluorescence intensity (a.u.)
17 | TGCTAAATTGCTAATACATACCTCTATGTTGTTGTGTTTTCGGAGTCACCTAGTGCAG | 8580 fluorescence intensity (a.u.)
18 | TGGCTCTGTAGGTTGGGATCTTCTACTCACTCGTTTTTCACGGAGTCACCTAGTGCAG | 8840 fluorescence intensity (a.u.)
19 | GTCGCCGCCGCCGCCGCGTCGCCGGATGCCGATCCTCCTCCGGAGTCACCTAGTGCAG | 8020 fluorescence intensity (a.u.)
20 | CTGCGGCGAGAGGTGGGAGGCGGGGCGGTTGTACGTGTGCCGGAGTCACCTAGTGCAG | 11000 fluorescence intensity (a.u.)
21 | CAAAACAGCCGCGTTTTGGCTCACTAGTCACTTGTTTGACCGGAGTCACCTAGTGCAG | 9710 fluorescence intensity (a.u.)

Row | Sequence | binding signal
22 | CCCGCCGTGCCGCTGCCACCGGGCTCACAGACCTCTCTCCCGGAGTCACCTAGTGCAG | 10100 fluorescence intensity (a.u.)
23 | TCCTCCTCCTCTGCTTCCATTCTCGACTCCACCAAGTGTTCGGAGTCACCTAGTGCAG | 8170 fluorescence intensity (a.u.)
24 | GTCTATCTGGCCACATGCCGTCAGTTAGACCGGCCCCACACGGAGTCACCTAGTGCAG | 8440 fluorescence intensity (a.u.)
25 | TTTTATCAAACGTTTGACCATTCGTCTTATTCAAAAAATTCGGAGTCACCTAGTGCAG | 9200 fluorescence intensity (a.u.)
26 | ATCTTATCTATAAATACGCATGCCCCTTCCTAGTCAATCCCGGAGTCACCTAGTGCAG | 8170 fluorescence intensity (a.u.)
27 | CTCCATGGCTCATCCCTTCTCTGTATATTTGGCGGTAAATCGGAGTCACCTAGTGCAG | 8970 fluorescence intensity (a.u.)
28 | GGCCGCTGTTCCTCTAGCTAAAAGTCTTGGTAATTGTTCACGGAGTCACCTAGTGCAG | 10200 fluorescence intensity (a.u.)
29 | GTCACCCTTCACCACGGCCATCTTCTCCTCGCTCGCCGTCCGGAGTCACCTAGTGCAG | 11200 fluorescence intensity (a.u.)
30 | ATTCCTGTGTTTTGCAATTCTCTGTTTTACAATTGTATTCCGGAGTCACCTAGTGCAG | 12200 fluorescence intensity (a.u.)
31 | CATTTCGTGTATCATCTCAATCGTCTCATTTCCTCTCATCCGGAGTCACCTAGTGCAG | 13100 fluorescence intensity (a.u.)
32 | GGGGATAGGATTCTGTATGATTGATTTGATTGGGTTGGTTCGGAGTCACCTAGTGCAG | 10500 fluorescence intensity (a.u.)
33 | GCAACGTTGACTTAATTGTTTTTTTTTGTTTTATCTGTTTCGGAGTCACCTAGTGCAG | 12400 fluorescence intensity (a.u.)
34 | ACTTTATTGCAACCAATTTTTGTTTGATTTGCTCTTGATTCGGAGTCACCTAGTGCAG | 9640 fluorescence intensity (a.u.)
35 | CCCTCTGCATGCCTTAATTTTGTGGATCTCTCGCTCGATCCGGAGTCACCTAGTGCAG | 12300 fluorescence intensity (a.u.)
36 | TTCCTCGATCTCTCAGGCTACGTTTTGATGGCTTACTGCACGGAGTCACCTAGTGCAG | 8510 fluorescence intensity (a.u.)
37 | AGACGGACGGGGTAGAGTTGGGGTCTCGCGGTGAGCCGATCGGAGTCACCTAGTGCAG | 10300 fluorescence intensity (a.u.)
38 | GGGAGCTGAAAAGCAAACTCTCGTCTCTCTGTGTATGTTCCGGAGTCACCTAGTGCAG | 9480 fluorescence intensity (a.u.)
39 | TCATCAGTGCCCTATCAGTCCCGGCAAATCCTTAATTAATCGGAGTCACCTAGTGCAG | 8360 fluorescence intensity (a.u.)
40 | GCTCTCTCTCTCTCTCTCTTTGCTCGATTCGCCGGCGATGCGGAGTCACCTAGTGCAG | 8130 fluorescence intensity (a.u.)
41 | GCTAGTTTTAAAAATTAACATATCATCTACCGTACTTTAACGGAGTCACCTAGTGCAG | 8240 fluorescence intensity (a.u.)
42 | CGGAATCTATAATTTGTTTTGTTATTAGTCTATGTTTAATCGGAGTCACCTAGTGCAG | 9330 fluorescence intensity (a.u.)

A second format for some results above:
CCCGCCGTGCCGCTGCCACCGGGCTCACAGACCTCTCTCCCGGAGTCACCTAGTGCAG
  binding signal = 10100 fluorescence intensity (a.u.)
TCCTCCTCCTCTGCTTCCATTCTCGACTCCACCAAGTGTTCGGAGTCACCTAGTGCAG
  binding signal = 8170 fluorescence intensity (a.u.)
GTCTATCTGGCCACATGCCGTCAGTTAGACCGGCCCCACACGGAGTCACCTAGTGCAG
  binding signal = 8440 fluorescence intensity (a.u.)
